Data as given in PubChem BioAssay AID1487 (National Center for Advancing Translational Sciences (NCATS), 2009).
Some of the results follow. Further columns of the screen follow, without active or inactive calls. Most of these compounds were active or inconclusive in the main read-out, so they are no random draw. The note in brackets gives the kind of curve behind each potency; many fits are weak.

Assay: qHTS Assay for Modulators of Lamin A Splicing
Conditions: HeLa LMNA splicing GFP/RFP minigene ratio, 48 h
How it was run: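 S3 HeLa cells stably expressing lamin A-EGFP splicing minigene plus DsRed2, 600 cells/well, 48 h compound exposure at 37C. Laser-scanning cytometry; analysed as GFP (500-530 nm)/RFP (575-640 nm) total intensity ratio; 0.5% DMSO vehicle.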

[1] = measured here: GFP splicing reporter channel
[2] = measured here: RFP viability control channel

Row | Compound | AC50 [1] | AC50 [2]
1 | O=C1Cc2ccccc2Sc2ccc(O)cc21 | 14.1 µM [rising, single point] | 31.6 µM [rising, single point]
2 | CC(=O)Nc1ccc(Oc2cc(C#N)c(C#N)cc2N2CCCCCC2)cc1 | – | 11.2 µM [rising, partial curve]
3 | Cn1c(=O)c2c(nc(CN3CCN(c4ccccc4)CC3)n2Cc2ccccc2F)n(C)c1=O | 7.08 µM [rising, full curve, poor fit] | –
4 | O=[N+]([O-])c1cccc(/C=N/Nc2nc(N3CCOCC3)nc(N3CCOCC3)n2)c1 | 22.4 µM [rising, single point] | 35.5 µM [rising, single point]
5 | Cc1ccc(CC(=O)Nc2ccc(OC(F)F)c(Cl)c2)cc1C | 11.2 µM [rising, single point] | 20 µM [rising, single point]
6 | Cc1ccc[n+](-c2nc3ccccc3nc2C(=C=[N-])C#N)c1 | – | 12.6 µM [rising, single point]
7 | Oc1ccc(NC(=S)N=Nc2c(O)[nH]c3ccccc23)cc1 | 1.41 µM [falling, partial curve] | 2.24 µM [falling, partial curve]
8 | Cc1cccc(N2CCc3c2nc2ccc(Br)cc2c3N)c1 | 3.55 µM [rising, partial curve, poor fit] | 25.1 µM [rising, partial curve]
9 | O=C(Nc1c(C(=O)N2CCN(c3ccccc3)CC2)oc2ccccc12)c1ccco1 | – | 15.8 µM [rising, single point]
10 | c1ccc2c(N3CCOCC3)nc(-c3ccncc3)nc2c1 | – | 12.6 µM [rising, single point]
11 | CSc1nc(-c2ccccc2)nc(NC(=O)c2ccccc2)c1C(C)=O | – | 3.55 µM [falling, full curve]
12 | C=C(Nc1ccc(OCC)cc1)Nc1ccc(OCC)cc1 | 0.000794 µM [falling, full curve, poor fit] | –
13 | CCc1ccccc1N(C1=NCCCS1)S(=O)(=O)c1ccc(C(C)(C)C)cc1 | 11.2 µM [rising, single point] | 12.6 µM [rising, partial curve]
14 | Cc1ccc2c(c1)N(Cc1cccc(Cl)c1)C(=O)c1cccnc1O2 | 15.8 µM [rising, partial curve] | 14.1 µM [rising, partial curve]
15 | CC(C)C(=O)NCC(c1ccc2c(c1)OCO2)N1CCN(c2ccccc2)CC1 (centres undefined) | 39.8 µM [falling, partial curve, poor fit] | –
16 | O=C(CCC1CCCCC1)NNC(=O)c1cnccn1 | – | 5.01 µM [rising, partial curve, poor fit]
17 | Cc1ccc(CCNC(=O)CCS(=O)(=O)c2cc3c(cc2C)NC(=O)CO3)cc1 | 35.5 µM [falling, partial curve, poor fit] | –
18 | Cc1nc2ncnn2c(C)c1CCC(=O)N1CCc2ccccc2C1 | 3.55 µM [rising, partial curve, poor fit] | –

In a second layout: results already given
Row	Compound	AC50 [1]	AC50 [2]
4	O=[N+]([O-])c1cccc(/C=N/Nc2nc(N3CCOCC3)nc(N3CCOCC3)n2)c1	22.4 µM [rising, single point]	35.5 µM [rising, single point]
5	Cc1ccc(CC(=O)Nc2ccc(OC(F)F)c(Cl)c2)cc1C	11.2 µM [rising, single point]	20 µM [rising, single point]

(continued)

Row | Compound | AC50 [1] | AC50 [2]
19 | O=C(Nc1nccs1)c1ccc(Br)c(S(=O)(=O)N2CCOCC2)c1 | – | 28.2 µM [rising, single point]
20 | Nc1nc(CSC(=S)N2CCOCC2)nc(Nc2ccc(F)cc2)n1 | 0.112 µM [rising, full curve] | 0.0794 µM [rising, full curve, poor fit]
21 | Cc1cc(C)c(C#N)c(SCc2nc3ccccc3[nH]2)n1 | – | 22.4 µM [rising, single point]
22 | CCSc1nnc(NC(=O)NC(CC)(C(F)(F)F)C(F)(F)F)s1 | – | 14.1 µM [rising, single point]
23 | CC(=O)c1cc2c(cc1NS(=O)(=O)c1ccccc1F)OCO2 | – | 4.47 µM [rising, single point]
24 | COc1cc2c(cc1OC)C(COc1cc(C)cc(C)c1)N(C(=O)COc1ccccc1)CC2 (centres undefined) | 35.5 µM [falling, single point] | –
25 | CN(C)C(C)(C)C#CC(O)(c1ccccc1)c1ccccc1 | 0.562 µM [rising, partial curve, poor fit] | –
26 | NS(=O)(=O)c1ccc(CCNC(=O)c2cc(-c3ccccc3)nc3ccccc23)cc1 | – | 35.5 µM [rising, single point]
27 | Cc1ccccc1CCNC(=O)c1cc2cc(S(=O)(=O)N3CCCCC3)ccc2n1C | – | 10 µM [falling, partial curve]
28 | Cc1cccc(C(=O)N2CC3(C)CC2CC(C)(C)C3)c1 (centres undefined) | – | 35.5 µM [rising, single point]
29 | COc1ccc(NC(=O)CN(C)S(=O)(=O)c2cccc3nsnc23)cc1OC | 7.08 µM [rising, partial curve] | 5.01 µM [rising, partial curve]
30 | O=C(COc1ccccc1)Nc1ccccc1N1CCCCC1 | 14.1 µM [rising, partial curve, poor fit] | 35.5 µM [rising, single point]
31 | CCCCCc1c(C)nc(NCc2ccccc2)[nH]c1=O | – | 35.5 µM [rising, single point]
32 | COc1ccc(-c2nnc(NC(=O)c3ccc(S(=O)(=O)N4CCc5ccccc5C4)cc3)o2)cc1 | – | 12.6 µM [rising, partial curve]
33 | O=C(NCCc1ccccc1)C(c1cccs1)N(C(=O)CCl)c1ccc(Cl)cc1 (centres undefined) | 5.62 µM [falling, partial curve] | 3.16 µM [falling, single point]
34 | COc1ccc(CCNCC(=O)Nc2ccccc2C(F)(F)F)cc1 | 10 µM [falling, partial curve, poor fit] | 35.5 µM [falling, single point]
35 | CCC(=O)Nc1c(S(=O)(=O)c2ccccc2)c2nc3ccccc3nc2n1C(C)c1ccccc1 (centres undefined) | 35.5 µM [rising, single point] | 35.5 µM [rising, single point]
36 | Cc1ccc(CN(C(=O)COc2ccccc2Cl)c2ccccn2)o1 | 3.16 µM [rising, full curve, poor fit] | –
